Inconclusive means that the source gave no clear call. Such entries were picked first, then a sample of the others. Potencies of inconclusive entries are doubtful fits and often do not repeat. Calls of active or inactive are those of the source. How the source made its calls: active means hit-call score of the fitted dose curve at least 0.9, where 1 is the maximum; inconclusive means response in the unintended direction; inactive means score below 0.9.
Target: human Mitogen-Activated Protein Kinase 1 (MAPK 1), MAPK1 (gene 5594) (UniProt P28482)
Experiment: NVS_ENZ_hMAPK1: NovaScreen (NVS) Enzymatic Assay for human Mitogen-Activated Protein Kinase 1 (MAPK 1) (AID 2283175)
Experimental: NVS_ENZ_hMAPK1 is a biochemical, single-readout assay that uses extracted gene-proteins in a cell-free assay. Measurements were taken 1 hour after chemical dosing in a 384-well plate.NVS_ENZ_hMAPK1 is one of one assay component(s) measured or calculated from the NVS_ENZ_hMAPK1 assay. It is designed to make measurements of enzyme activity, a form of enzyme reporter, as detected with fluorescence intensity signals by Fluorescence and electrophoretic mobility shift technology.Data from the assay component NVS_ENZ_hMAPK1 was analyzed into 1 assay endpoint. This assay endpoint, NVS_ENZ_hMAPK1, was analyzed in the positive analysis fitting direction relative to DMSO as the negative control and baseline of activity. Using a type of enzyme reporter, loss-of-signal activity can be used to understand changes in the enzymatic activity as they relate to the gene MAPK1. Furthermore, this assay endpoint can be referred to as a primary readout, because this assay has produced multiple assay endpoints where this one serves a enzymatic activity function. To generalize the intended target to other relatable targets, this assay endpoint is annotated to the kinase intended target family, where the subfamily is serine/threonine kinase.
Binding assays used specific radioligands (tritiated, iodinated) with non-radioactive competitive displacement ligands in agonist or antagonist protocols (as indicated) and various reference compounds and inhibitors to titrate specific binding to receptors and transporters. Most enzyme assays (CYPs, kinases, phosphatases, proteases, HDACs) used recombinant protein and specific substrates (fluorescence mostly, some colorimetric and radioactive) and inhibitors, followed by a biochemical separation of substrate and product. All assays for the biochemical HTS were initially run in duplicate at a single concentration (10 uM for CYP450 assays and 25 uM for all others). Assay-chemical combinations meeting a pre-defined threshold (e.g., 30% inhibition and other criteria defined below) were then run in singleton concentration-response format with maximum concentration of 20 uM for CYPs and 50 uM for all others. Each assay was run with positive and negative controls, and concurrent controls on every plate. The follow-up (secondary) screen tested active chemical-pairs in concentration series, as well as a few additional assays not tested in the primary screen, some selected negative inactives, and several cases re-run in the concentration series for confirmatory purposes.

Protein sequences, listed by entry. Tags and fused reporters are not part of them.
UniProt P28482, whole entry, looked up: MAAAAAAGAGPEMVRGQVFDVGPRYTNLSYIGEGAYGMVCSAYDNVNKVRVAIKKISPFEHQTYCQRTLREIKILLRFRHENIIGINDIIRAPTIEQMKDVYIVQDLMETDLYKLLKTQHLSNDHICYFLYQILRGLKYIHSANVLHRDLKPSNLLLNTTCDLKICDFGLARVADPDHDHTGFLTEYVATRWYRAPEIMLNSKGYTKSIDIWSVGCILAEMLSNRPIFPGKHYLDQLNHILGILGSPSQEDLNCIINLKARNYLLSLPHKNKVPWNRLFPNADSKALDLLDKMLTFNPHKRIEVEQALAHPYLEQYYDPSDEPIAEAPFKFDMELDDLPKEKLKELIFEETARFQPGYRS

| SMILES | outcome | AC50 |
| --- | --- | --- |
| O=C(N[C@H]1CN2CCC1CC2)c1ccc2c(c1)OCCO2 | inactive |  |
| CCCN(CCC)c1c([N+](=O)[O-])cc(S(N)(=O)=O)cc1[N+](=O)[O-] |  | inconclusive: 5.24 µM |
| ClC1=C(Cl)C2(Cl)C3C(Cl)C=CC3C1(Cl)C2(Cl)Cl (configuration not stated) |  | inconclusive: 0.365 µM |
| Oc1cc(Cl)ccc1Oc1ccc(Cl)cc1Cl | inactive |  |
| CC[C@H](C)[C@H]1O[C@]2(C=C[C@@H]1C)C[C@@H]1C[C@@H](C/C=C(\C)[C@@H](O[C@H]3C[C@H](OC)[C@@H](O[C@H]4C[C@H](OC)[C@@H](NC)[C@H](C)O4)[C@H](C)O3)[C@@H](C)/C=C/C=C3\CO[C@@H]4[C@H](O)C(C)=C[C@@H](C(=O)O1)[C@]34O)O2 |  | inconclusive: 17.4 µM |
| CC(C)(C)C(O)C(Oc1ccc(Cl)cc1)n1cncn1 (configuration not stated) |  | inconclusive: 25 µM |
| CCNP(=S)(OC)O/C(C)=C/C(=O)OC(C)C (configuration not stated) |  | inconclusive: 0.0755 µM |

From PubChem BioAssay (EPA / NIEHS)
